Source: article PMC7618200 (The Biochemical journal, 2025)
Results are given in words; binding and its absence hold for the method and conditions named. In cells and extracts the contact can be indirect.

Protein sequences, listed by entry. Tags and fused reporters are not part of them. Lines headed by an entry give the natural chain unless they say otherwise; changes in a name come on top.
UniProt Q9BQF6: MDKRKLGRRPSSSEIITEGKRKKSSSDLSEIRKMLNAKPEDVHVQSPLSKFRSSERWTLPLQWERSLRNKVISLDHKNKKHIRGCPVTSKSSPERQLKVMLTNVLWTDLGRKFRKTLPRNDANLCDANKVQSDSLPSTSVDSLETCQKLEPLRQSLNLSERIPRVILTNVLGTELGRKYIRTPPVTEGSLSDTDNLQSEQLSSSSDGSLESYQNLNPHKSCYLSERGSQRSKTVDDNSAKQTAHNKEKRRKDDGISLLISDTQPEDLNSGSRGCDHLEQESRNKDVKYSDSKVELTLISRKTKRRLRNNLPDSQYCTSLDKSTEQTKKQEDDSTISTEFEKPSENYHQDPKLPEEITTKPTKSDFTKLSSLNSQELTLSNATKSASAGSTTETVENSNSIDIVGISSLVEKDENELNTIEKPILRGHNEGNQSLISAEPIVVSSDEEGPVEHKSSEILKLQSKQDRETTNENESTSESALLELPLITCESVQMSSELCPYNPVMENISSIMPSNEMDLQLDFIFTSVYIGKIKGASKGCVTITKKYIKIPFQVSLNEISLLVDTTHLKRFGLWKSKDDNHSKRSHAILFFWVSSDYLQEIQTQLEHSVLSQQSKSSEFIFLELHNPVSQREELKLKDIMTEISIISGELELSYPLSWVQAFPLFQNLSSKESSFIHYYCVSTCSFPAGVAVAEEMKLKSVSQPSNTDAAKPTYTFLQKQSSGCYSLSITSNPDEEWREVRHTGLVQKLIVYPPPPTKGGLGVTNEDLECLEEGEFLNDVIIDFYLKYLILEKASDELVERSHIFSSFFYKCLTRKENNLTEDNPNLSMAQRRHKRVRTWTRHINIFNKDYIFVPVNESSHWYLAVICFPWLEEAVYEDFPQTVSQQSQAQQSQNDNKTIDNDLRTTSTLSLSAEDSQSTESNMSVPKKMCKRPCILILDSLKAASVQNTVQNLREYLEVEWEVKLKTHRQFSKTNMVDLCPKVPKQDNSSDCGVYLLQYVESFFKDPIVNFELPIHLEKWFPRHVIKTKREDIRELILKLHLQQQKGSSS
UniProt O43791: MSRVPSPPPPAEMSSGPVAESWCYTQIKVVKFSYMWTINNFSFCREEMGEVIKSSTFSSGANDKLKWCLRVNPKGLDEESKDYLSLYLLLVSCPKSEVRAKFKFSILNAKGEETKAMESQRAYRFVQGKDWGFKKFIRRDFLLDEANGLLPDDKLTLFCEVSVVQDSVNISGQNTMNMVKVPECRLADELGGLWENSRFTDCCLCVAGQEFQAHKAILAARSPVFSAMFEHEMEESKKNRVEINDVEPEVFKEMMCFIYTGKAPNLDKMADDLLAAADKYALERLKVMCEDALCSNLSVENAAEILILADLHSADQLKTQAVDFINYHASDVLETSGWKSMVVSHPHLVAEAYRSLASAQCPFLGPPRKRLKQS

Molecular target: FLAG-tagged SENP7 with the Q-motif mutated (human) (UniProt Q9BQF6)
Assay: co-IP; anti-FLAG M2 agarose IP from NP-40 lysates of HEK293T cells overexpressing 2× FLAG-tagged protein; cells treated with 5 μM MLN4924 for 6 hours; immunoblot

binding: no binding
Substance: endogenous SPOP (speckle-type BTB/POZ protein) (from UniProt O43791 1-374)
